# Measurements reported in patent US20240209325A1, “CANCER PROPHYLAXIS AND THERAPY USING TARGETED VIRAL NANOPARTICLES” (priority 2021, published 2024).
# Some of these results come from one statement about several compounds together.
# Experiment: Biodistribution of Cy5-labeled CPMV and CCMV particles after i.v. injection (ex vivo IVIS)
# Details: 200 μg i.v., organs harvested after 24 h
# Protocol: Healthy and B16F10 metastatic tumor-bearing C57BL/6 female mice were used for biodistribution studies of the Cy5-labeled CPMV and CCMV from Section 2. B16F10 cells (200,000 cells/mouse) were administered i.v. and the tumors were matured for one week. […] After 24 hours, the lungs were harvested and then imaged and quantified for fluorescence using the IVIS (Xenogen).
# Both healthy and B16F10 tumor-bearing mice were injected with native and H6/G3-conjugated CPMV and CCMV; to enable tracking the nanoparticles were labeled with Cy5. Lungs and other organs were harvested 24 h following intravenous (i.v.) nanoparticle injection and imaged ex vivo to observe localization of the nanoparticles in the lungs, spleen, kidney, and liver (FIG. 3A).
substance,measurement,value
Cowpea mosaic virus [CPMV],clearance by kidneys (share of fluorescence signal),6-10%
same,clearance in spleen (share of fluorescence signal),14-18%
cowpea chlorotic mottle virus [CCMV],clearance by kidneys (share of fluorescence signal),6-10%
same,clearance in spleen (share of fluorescence signal),14-18%
